Test results published in PubChem BioAssay AID2685 (National Center for Advancing Translational Sciences (NCATS), 2010).
This is one part of the list. Further columns of the screen follow, without active or inactive calls. The list favours compounds with an active or inconclusive main result. Potencies come from curve fits of mixed quality, noted in brackets.

Assay: qHTS Assay for Lipid Storage Modulators in Drosophila S3 Cells;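 as to cell number change: cells counted by Cell Tracker Red CMTPX staining in the red channel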
Details: BODIPY lipid droplet fluorescence, 18-24 h; for cell number change: measured here: cell count max response, cells fed with added oleic acid
Outline: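 Laser-scanning cytometry quantifies lipid droplet accumulation (500–530 nm total intensity; droplet/cell object ratio) in oleic acid-fed (400 uM added) Drosophila S3 cells treated with a concentration series. 20 uM Triacsin C defined 100% inhibition.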

[1] = measured here: cell number channel AC50, cells fed with added oleic acid
[2] = measured here: lipid fluorescence (Fed channel) AC50, cells fed with added oleic acid

Structure (SMILES)	cell number change [%]	AC50 [1]	AC50 [2]
COc1ccc(CN2C(=O)C3C4C=CC(C4)C3C2=O)cc1 (configuration not stated)	78.4	23.1 µM [rising, single point]	–
CC(C)Nc1ccc(C(CC(N)=O)NC(=O)c2ccc(Br)cc2)cc1[N+](=O)[O-] (configuration not stated)	12.3	–	23.1 µM [rising, single point]
COC(=O)c1cccc(NC(=O)CN2CCC(NC(=O)c3cc(OC)c(OC)c(OC)c3)CC2)c1	16.3	–	2.91 µM [rising, partial curve]
CCN(CC)CCCn1c(=S)[nH]c2cc(Cl)ccc2c1=O	15.1	–	2.06 µM [falling, partial curve]
O=c1ccc(-c2ccc(S(=O)(=O)NCC3CCN(Cc4cccc(F)c4)CC3)s2)n[nH]1	23.9	–	29.1 µM [rising, single point]
CCOc1ccc(NC(=O)CSc2nc(=O)n(Cc3ccccn3)c3c2CCC3)cc1	1.13	–	–
COc1ccc(CC(=O)N/N=C(\C)c2cccs2)cc1OC	-7.51	–	0.411 µM [rising, partial curve, poor fit]
N#CC(=C1N=c2ccccc2=N1)c1c(O)[nH]c2ccccc12	31.1	32.6 µM [rising, single point]	–
CCCCOC(=O)CCc1nc2ccccc2[nH]1	23.6	0.206 µM [rising, full curve, poor fit]	29.1 µM [rising, single point]
O=Cc1cn(CC(=O)N2CCCCC2)c2ccccc12	-62.9	20.6 µM [falling, single point]	6.51 µM [falling, single point]
CCc1ccc(NC(=O)CCCN2C(=O)C3CC=CCC3C2=O)cc1 (configuration not stated)	3.18	–	–
COc1ccc(C(N)=S)c(OC)c1	1.67	0.651 µM [rising, full curve, poor fit]	1.16 µM [rising, single point]
O=C(COC(=O)c1cccnc1Cl)NCc1cccs1	36.9	0.00461 µM [rising, full curve, poor fit]	29.1 µM [rising, single point]
Cc1[nH]c2ccccc2c1C(=O)C(C)OC(=O)c1ccc(NC(=O)CC#N)cc1 (configuration not stated)	–	0.651 µM [falling, single point]	4.61 µM [falling, single point]
Cc1cccc(NC(=S)NCc2ccc3[nH]c4c(c3c2)CCCC4)c1	-32.4	16.4 µM [falling, single point]	18.4 µM [falling, single point]
COc1cccc(NC(=O)CN(C)C(C)C(=O)NC(=O)NC2CCCCC2)c1 (configuration not stated)	3.88	–	2.91 µM [rising, single point]
CCC1(CC)Cc2ccccc2-c2nc(CN3CCOCC3)[nH]c(=O)c21	-15.6	–	–
Cc1n[nH]c(=O)nc1N1CCc2ccccc2C1	1.56	–	29.1 µM [rising, single point]
CCOc1ccccc1-n1c(SCC(N)=O)nnc1-c1ccc(O)cc1	-5.9	6.51 µM [falling, single point]	6.51 µM [falling, single point]
Cc1nc(Nc2ccccc2)[nH]c(=O)c1CCC(C)C	-45.2	32.6 µM [falling, single point]	–

Structure (SMILES)	cell number change [%]	AC50 [1]	AC50 [2]
CCN(CC)c1ccc(/C=C2/C(=O)ON=C2C)cc1	–	–	8.2 µM [falling, partial curve]
COC(=O)c1sccc1NC(=S)N1CCC(C)CC1	43.1	1.3 µM [rising, partial curve]	1.03 µM [rising, full curve]
Cc1ccccc1/C=N/Nc1nc2ccccc2[nH]1	-30.8	25.9 µM [falling, single point]	–
CCN(C(=O)C1CCCN(c2nc(-c3ccc(OC)cc3)no2)C1)c1ccccc1F (configuration not stated)	12.6	–	29.1 µM [falling, single point]
COc1ccccc1/C=C(/NC(=O)c1ccccc1)C(=O)NCCCn1ccnc1	11	–	0.116 µM [rising, full curve, poor fit]
COc1ccc(NS(=O)(=O)c2cccc(NC(=O)NC3CCCCC3)c2)cc1	–	0.00461 µM [falling, full curve, poor fit]	–
Cc1cc(-n2ccc(=O)[nH]c2=O)nc(-c2ccccc2)n1	-20.2	0.0731 µM [falling, full curve, poor fit]	–
CC(CN1CCN(C)CC1)OC(=O)c1cccc(Cl)c1 (configuration not stated)	24.5	–	–
CCOC(=O)c1cccc(N2C(=O)C3C(C(=O)NC4CC4)C4(C)C=CC3(O4)C2C(=O)NC(C)(C)C)c1 (configuration not stated)	10.6	–	23.1 µM [falling, single point]
COc1ccccc1N1CCN(C(=O)c2ccc3[nH]c4c(c3c2)CC(C)CC4)CC1 (configuration not stated)	-8.41	–	–
COc1ccc(NCCc2ccccn2)cc1	-11	–	0.13 µM [rising, full curve, poor fit]
O=C(C1CCCC1)N1CCC(CC2CC(c3cccc(Br)c3)=NO2)(C(=O)NCC2CCCCC2)CC1 (configuration not stated)	33.3	29.1 µM [rising, single point]	–
Cc1cc(OC(C)C(=O)NCc2ccccn2)c2c(C)c(Cc3ccccc3)c(=O)oc2c1 (configuration not stated)	-21.5	–	23.1 µM [falling, single point]
COc1ccccc1-n1c(SCC(=O)NCc2ccc3c(c2)OCO3)nc2cc([N+](=O)[O-])ccc21	11.5	–	0.517 µM [rising, single point]
C=CCN(c1ccccc1OC)S(=O)(=O)c1cccc(C(=O)OCC(=O)c2c[nH]c3ccccc23)c1	-26.8	–	32.6 µM [falling, single point]
CS(=O)(=O)NCCSCc1ccco1	-0.419	–	–
Cc1ccc(NC(=S)NC(=O)C2CCC2)cc1C	-12.4	–	16.4 µM [rising, partial curve]
C/C(=N\NC(=O)CC(C)C)c1ccc(Cl)c(Cl)c1	-56.1	20.6 µM [falling, partial curve, poor fit]	–
O=C(Nc1ccncc1)c1cc(-c2ccccn2)nc2ccccc12	30.4	2.31 µM [rising, partial curve, poor fit]	2.91 µM [rising, partial curve, poor fit]
O=C(NCc1ccccc1)C1CC(=O)N(C2CCCCCC2)C1 (configuration not stated)	31	29.1 µM [rising, single point]	20.6 µM [rising, single point]

Structure (SMILES)	cell number change [%]	AC50 [1]	AC50 [2]
C[N+]1(CCCOC(=O)C2(c3ccccc3)CCCC2)CCOCC1	-19.6	–	0.0164 µM [falling, full curve, poor fit]
CN1C[C@@H]2C(c3ccc(Cl)nc3)C3(c4cccnc4)CC2(C3)[C@H]1c1ccccc1 (some centres not stated)	17.3	–	0.082 µM [rising, full curve, poor fit]
CCCCOCCCNC(=O)C1CCCCC1	5.85	–	1.64 µM [falling, full curve, poor fit]
O=C(CN(c1ccccc1)S(=O)(=O)c1ccccc1)NCCSCc1ccco1	62.6	11.6 µM [rising, partial curve]	4.61 µM [rising, single point]
CC1=NN(C(N)=S)C(=O)C1N=Nc1c(C)cc(C)cc1C (configuration not stated)	107	0.92 µM [rising, partial curve]	2.31 µM [rising, partial curve]
N/C(=N\OC(=O)c1ccc([N+](=O)[O-])cc1Cl)c1ccccn1	-11.5	–	–
Nc1c(C(=O)NCCN2CCOCC2)c2nc3ccccc3nc2n1-c1ccccc1	-6.52	–	0.92 µM [rising, partial curve]
C=C(C)COc1ccc(-c2nc(N)ncc2-c2ccc(OC)cc2)c(O)c1	-13	–	29.1 µM [falling, single point]
COCCSc1nnc(NS(=O)(=O)Cc2ccccc2)s1	3.52	–	2.06 µM [falling, partial curve, poor fit]
CC1=C(C#N)C(NC(=O)c2ccc(C)cc2)(C(F)(F)F)C(=O)N1 (configuration not stated)	–	–	0.00461 µM [falling, full curve, poor fit]
CC(=O)N1CCN(c2ccc(NC(=S)NC(=O)COc3ccc(C(C)(C)C)cc3)cc2)CC1	-46.6	2.06 µM [falling, partial curve]	2.06 µM [falling, partial curve]
CCN(Cc1nc(-c2ccc(OC)c(OC)c2)no1)C(=O)c1ccc2c(c1)OCO2	4.17	–	1.16 µM [falling, single point]
Cc1ccc(CSCC(=O)N(C)CC(=O)Nc2ccc(Br)cc2C)cc1	-28.8	–	14.6 µM [falling, partial curve]
COc1ccc(NC(=O)CN(C)CC(=O)Nc2cccc(C(F)(F)F)c2)cc1	-14	–	–
COc1ccc(NC(=O)c2cc(=O)[nH]c(=O)[nH]2)cc1S(=O)(=O)Nc1ccccc1Cl	31	–	–
Cc1cc(C)n2nc(SC(C)C(=O)N(C)c3ccccc3)nc2n1 (configuration not stated)	14.3	6.51 µM [falling, single point]	–
O=c1nc(Nc2cccc(Cl)c2)oc2cc(Cl)oc(=O)c12	-0.438	–	29.1 µM [rising, partial curve]
Cc1ccc(NC(=O)/C(Cl)=C\c2ccccc2)cc1	8.52	–	7.31 µM [rising, partial curve, poor fit]
COc1ccc(-c2c(C)oc3c(CN4CCCCC4C)c(O)ccc3c2=O)cc1OC (configuration not stated)	-13.7	–	–

Looked up by structure from above, four records:
Structure (SMILES)	cell number change [%]	AC50 [1]	AC50 [2]
C=CCN(c1ccccc1OC)S(=O)(=O)c1cccc(C(=O)OCC(=O)c2c[nH]c3ccccc23)c1	-26.8	–	32.6 µM [falling, single point]
CC(=O)N1CCN(c2ccc(NC(=S)NC(=O)COc3ccc(C(C)(C)C)cc3)cc2)CC1	-46.6	2.06 µM [falling, partial curve]	2.06 µM [falling, partial curve]
COc1ccc(NS(=O)(=O)c2cccc(NC(=O)NC3CCCCC3)c2)cc1	–	0.00461 µM [falling, full curve, poor fit]	–
C/C(=N\NC(=O)CC(C)C)c1ccc(Cl)c(Cl)c1	-56.1	20.6 µM [falling, partial curve, poor fit]	–
